Source: PubChem BioAssay AID1259308 (NCATS, 2017)

- Test: 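Genes whose loss raises luciferase production in HEK293 cells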 (primary screen)
- Cells: human HEK293 embryonic kidney cells stably expressing firefly luciferase (HEK-CMV-Luc2-Hygro)
- Reagent: single siRNA against human genes, 0.8 pmol siRNA per well
- Time to read-out: 72 h
- Detection: 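Reporter luminescence and viable-cell signal on separate replicate plates, given as percent of non-targeting control and median/MAD z-scores, plus per-cell luciferase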
- Reading the numbers: total luciferase, z-score and total luciferase, % of control: higher = more reporter protein produced; luciferase per cell, z-score: higher = more reporter output per viable cell
- Call rule: 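An siRNA counts as active if its total luciferase robust z-score exceeds 3; genes with two or more such siRNAs out of three were retested with fresh siRNAs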
- Meaning of the calls: active = raised luciferase; inactive = no rise
Here is a random part of about 59,000 reagents tested. About 1,510 of all reagents (2.6%) count as active. 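Calls use total luciferase alone and ignore viability, so some active siRNAs may act by altering cell number.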 A number with no mark means an inactive call. Reagents against one gene are numbered here. Further read-outs or replicates are left out here.

target gene	siRNA no.	total luciferase, z-score	total luciferase, % of control	luciferase per cell, z-score
ZIC2	1	-0.515	71.6	-0.553
ZIC2	2	-0.811	65.8	-0.853
ZIC2	3	1.54	113	1.68
ARHGAP9	1	1.64	114	1.69
ARHGAP9	2	-1.04	61.3	-1.14
ARHGAP9	3	1.17	105	0.271
S1PR1	1	0.497	91.8	0.432
S1PR1	2	0.93	100	0.973
S1PR1	3	-0.356	74.8	-0.409
FAM234B	1	0.656	94.9	0.0531
FAM234B	2	-0.74	67.2	-0.876
FAM234B	3	-0.548	71	-0.373
SH3GL3	1	0.392	89.7	-0.0323
SH3GL3	2	0.197	85.8	0.0614
SH3GL3	3	-1.12	59.6	-0.209
CSNK1E	1	2.19	125	1.41
CSNK1E	2	-0.468	72.6	0.141
CSNK1E	3	-1.44	53.3	-1.59
PRR11	1	0.924	100	0.852
PRR11	2	-0.317	75.6	0.00153
PRR11	3	-0.692	68.1	-0.598
ANGPTL4	1	0.862	99	-0.171
ANGPTL4	2	-0.734	67.3	-1.17
ANGPTL4	3	-1.31	55.8	-0.983
SPDYE2	1	-0.0397	81.1	0.251
SPDYE2	2	1.43	110	0.871
SPDYE2	3	-0.0767	80.4	-0.826
SPDYE2	4	0.36	89.1	0.177
SPDYE2	5	0.298	87.8	-0.114
SPDYE2	6	-0.123	79.4	0.456
APC2	1	2.62	134	1.76
APC2	2	-0.216	77.6	1.11
APC2	3	-0.734	67.3	-0.0445
CSNK1D	1	2.3	128	2.22
CSNK1D	2	-0.0157	81.6	-0.35
CSNK1D	3	-1.52	51.7	-0.895
TBCCD1	1	0.4	89.8	-0.279
TBCCD1	2	-0.491	72.1	-0.0741
TBCCD1	3	-0.593	70.1	-1.33
CCL15	1	2.87	139	2.45
CCL15	2	-0.287	76.2	-0.19
CCL15	3	-0.452	72.9	-1.25

6 of these entries, reformatted.
SPDYE2 #6
- total luciferase, z-score: -0.123
- total luciferase, % of control: 79.4
- luciferase per cell, z-score: 0.456

APC2 #1
- total luciferase, z-score: 2.62
- total luciferase, % of control: 134
- luciferase per cell, z-score: 1.76

APC2 #2
- total luciferase, z-score: -0.216
- total luciferase, % of control: 77.6
- luciferase per cell, z-score: 1.11

APC2 #3
- total luciferase, z-score: -0.734
- total luciferase, % of control: 67.3
- luciferase per cell, z-score: -0.0445

CSNK1D #1
- total luciferase, z-score: 2.3
- total luciferase, % of control: 128
- luciferase per cell, z-score: 2.22

CSNK1D #2
- total luciferase, z-score: -0.0157
- total luciferase, % of control: 81.6
- luciferase per cell, z-score: -0.35

More reagents follow:
target gene	siRNA no.	total luciferase, z-score	total luciferase, % of control	luciferase per cell, z-score
MASP1	1	2.66	135	1.64
MASP1	2	-1.24	57.1	-2.36
MASP1	3	-0.436	73.2	-0.478
POR	1	1.5	112	0.965
POR	2	0.0933	83.7	-0.129
POR	3	-0.847	65	-0.825
PI15	1	0.373	89.3	0.43
PI15	2	-0.279	76.3	-0.984
PI15	3	1.81	118	1.63
CCDC144NL	1	-1.01	61.8	-0.652
CCDC144NL	2	0.737	96.6	1.1
CCDC144NL	3	0.164	85.2	-0.00913
TERF1P2	1	-0.741	67.2	0.0318
TERF1P2	2	0.00353	82	0.599
TERF1P2	3	-0.269	76.5	-0.5
THAP1	1	-0.581	70.3	0.613
THAP1	2	-0.109	79.7	0.246
THAP1	3	0.385	89.5	-0.303
BCL6	1	-2.85	25.2	-0.236
BCL6	2	-0.0161	81.6	-0.283
BCL6	3	-1.38	54.4	-0.281
NUDT19	1	1.14	105	2.46
NUDT19	2	0.911	100	0.904
NUDT19	3	1.5	112	0.994
NLRP14	1	-1.08	60.4	-0.0788
NLRP14	2	0.185	85.6	0.323
NLRP14	3	0.196	85.8	0.24
PRRC2C	1	1.14	105	0.645
PRRC2C	2	0.229	86.4	-0.0852
PRRC2C	3	-0.382	74.3	-0.354
CTIF	1	-0.0667	80.6	-0.58
CTIF	2	0.314	88.1	0.293
CTIF	3	0.131	84.5	-0.479
